# About 2,100 (0.66%) of roughly 320,000 compounds were called active. Calls come from the whole dose curve; as a rule, active = well fitted inhibition curve with a large enough effect in the signal ratio, with a control signal flat (not every such curve was filed as active); inconclusive = small, poorly fitted or top-dose-only effect, or effect the other way, or a change in a side signal; inactive = flat fitted curve, though single readings scatter; the % refers to the signal ratio. Inconclusive means that the source gave no clear call. Where the call is inconclusive, the potency comes from a doubtful curve fit.
# Test: qHTS Assay for Lipid Storage Modulators in Drosophila S3 Cells
# Details: BODIPY lipid droplet fluorescence, 18-24 h, cells fed with added oleic acid; lipid storage change, negative = inhibition: at 46.1 µM (top of the series) unless noted
# Procedure, shortened: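 Drosophila S3 cells loaded with oleic acid (400 uM, as added) and compounds at several concentrations; lipid droplets imaged by 488-nm laser-scanning cytometry, 500–530 nm intensity and object ratio to cell channel. Percent activity normalized to 20 uM Triacsin C.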
# % is set by controls: 0 for no effect and ±100 for the full control effect; potency is the fitted concentration of half-maximal effect.
Structure (SMILES),Potency,"lipid storage change, negative = inhibition"
COC(=O)CSC(=S)N1C(C)CCCC1C (stereo not drawn),"inconclusive: 6.51 µM [cytotoxic, single point]",–
O=C(COC(=O)C1C2CC3OC(=O)C1C3C2)Nc1cccc(C(F)(F)F)c1 (stereo not drawn),–,inconclusive: 170%
Cc1ccc(N(CCC#N)C(=O)COC(=O)c2cc(C)no2)cc1,"inconclusive: 6.51 µM [falling, single point]",–
CC(C)(C)c1ccc(C(=O)NCC2CCCN2S(=O)(=O)c2ccccc2)cc1 (stereo not drawn),–,inconclusive: 33.5%
Cc1cc(NC(=O)C2CCN(C(=O)c3ccco3)CC2)ccc1Br,"inconclusive: 7.31 µM [activator, partial curve]",–
Cn1nnnc1SCc1cc(=O)[nH]c2ccccc12,–,inconclusive: 34.8%
O=C(CC(=O)Nc1nc(C23CC4CC(CC(C4)C2)C3)cs1)NCCO,–,inconclusive: -22.3%
COc1ccccc1N=c1oc2c(OC)cccc2cc1C(=O)NCc1ccco1,"inconclusive: 1.3 µM [activator, full curve]",–
Cc1nn(S(=O)(=O)c2ccccc2)c(C)c1S(=O)(=O)N1CCOCC1,"inconclusive: 29.1 µM [activator, single point]",–
Cc1ccc(OCCCCNC(C)c2ccccc2)c(C)c1 (stereo not drawn),–,inconclusive: 71.2%
CC(C)(NO)/C(=N\O)c1ccccc1,–,inconclusive: 5.12%
CCOc1ccccc1C(=S)NC1CCCCC1,–,inconclusive: 10.5%
COc1cccc(CN2C(=O)c3ccccc3S2(=O)=O)c1,–,inconclusive: 56.7%
Cc1csc2c(=O)sc(NC(=O)c3ccco3)nc12,–,inconclusive: 9.42%
Cc1cc(N=Cc2cc(Cl)ccc2O)no1,"inconclusive: 2.31 µM [falling, full curve, poor fit]",–
Cc1cc(NS(=O)(=O)c2ccc(NC(=O)C(F)(F)F)cc2)nc(C)n1,–,inconclusive: 276%
COc1cc(C(=O)NC(=S)Nc2ccc3[nH]c(=O)[nH]c3c2)cc(OC)c1OC,–,inconclusive: -135%
CCN(CC)CCN(Cc1cc2cc3c(cc2[nH]c1=O)OCCO3)C(=S)NCCCN(C)C,"inconclusive: 0.092 µM [falling, full curve, poor fit]",–
Cc1ccc(Nc2nc(=O)c3cccnc3s2)c(Br)c1,–,inconclusive: 25.1%

Structure (SMILES),Potency,"lipid storage change, negative = inhibition"
CC(CCC(=O)O)(c1ccc(O)cc1)c1ccc(O)cc1,"inconclusive: 0.92 µM [falling, single point]",–
Cc1c(S(=O)(=O)Nc2cccc(Cl)c2)c(=O)n(C)c(=O)n1C,–,inconclusive: -4.27%
O=[N+]([O-])c1cccnc1S(=O)(=O)c1ccccc1,–,inconclusive: -97.6%
Cc1nc(NC2=NCN(Cc3ccco3)CN2)nc2ccccc12,"inconclusive: 6.51 µM [activator, single point]",–
CC(NC(=O)COc1cccnc1[N+](=O)[O-])c1ccc(Cl)cc1 (stereo not drawn),"inconclusive: 3.66 µM [activator, full curve]",–
Cc1cc(C)c2c(N)c(C(=O)c3ccccc3Cl)sc2n1,–,inconclusive: 12%
COc1ccc(C(C(=O)NC2CCCC2)N(C(=O)c2ccoc2C)c2ccccc2)cc1 (stereo not drawn),–,inconclusive: -3.61%
CN(C)Cc1c(O)ccc2c(=O)c(-c3ccccc3)c(C(F)(F)F)oc12,–,inconclusive: -32.1%
Cc1cc(C)nc(SCc2csc(N)n2)n1,–,inconclusive: 13.5%
CCCn1c(SCc2ccccn2)nc2c1c(=O)n(C)c(=O)n2C,–,inconclusive: 18.8%
COc1ccc(C(=O)c2c(N)sc3c2CCN(C(=O)OC(C)(C)C)C3)cc1,–,inconclusive: 7.73%
COc1ccc(F)cc1C(=O)C1CCCN(C(=O)c2cccc(N(C)C)c2)C1 (stereo not drawn),"inconclusive: 25.9 µM [falling, single point]",–
COc1ccc(C(=O)N2CCN(C(=O)Cc3ccccc3)CC2)cc1OC,"inconclusive: 1.84 µM [activator, partial curve]",–
O=C(NCc1ccc2c(c1)OCO2)C1CC(=O)N(CCc2ccc(Cl)cc2)C1 (stereo not drawn),–,inconclusive: 11.4%
O=C(Cc1ccc2c(c1)OCCO2)N/N=C/c1ccco1,"inconclusive: 25.9 µM [activator, single point]",–
O=S(=O)(c1ccccc1)c1nc(-c2cccs2)oc1NCCCn1ccnc1,"inconclusive: 1.46 µM [rising, full curve]",–
Cc1ccccc1CSCC(=O)Nc1ccccc1Br,"inconclusive: 5.17 µM [falling, partial curve, poor fit]",–
COc1ccc(F)cc1S(=O)(=O)NCc1cc(=O)n(C)c(=O)n1C,–,inconclusive: 97.8%
COc1ccc(Oc2coc3c(CN(C)C)c(O)ccc3c2=O)cc1,–,inconclusive: 11%

# Sorted by formula weight (high to low): 3 of the compounds above
Structure (SMILES),Potency,"lipid storage change, negative = inhibition"
Cc1nn(S(=O)(=O)c2ccccc2)c(C)c1S(=O)(=O)N1CCOCC1,"inconclusive: 29.1 µM [activator, single point]",–
Cc1ccc(Nc2nc(=O)c3cccnc3s2)c(Br)c1,–,inconclusive: 25.1%
O=[N+]([O-])c1cccnc1S(=O)(=O)c1ccccc1,–,inconclusive: -97.6%

# Reference: PubChem BioAssay AID2685 (National Center for Advancing Translational Sciences (NCATS), 2010)
